# Results as given in PubChem BioAssay (NCATS).
# Where “and” joins values, the source holds several entries; their conditions need not be identical. Equal entries are not always repeated. Some of the results follow. These are further read-outs of the screen, such as a control signal, another cell line or another target. No call is given for them. The list favours compounds with an active or inconclusive main result. For some of these results: The note in brackets gives the kind of curve behind each potency; many fits are weak.
# How the values were obtained:
# [1] = qHTS assay for small molecule agonists of retinoid X receptor alpha signaling (AID 588544); details: HEK293T RXRa-UAS-bla, beta-lactamase reporter, 18 h; 530 nm emission
# [2] = A High-Content qHTS Against Drug Library for the Identification of Small Molecules that Inhibit DYT1 Early Onset Primary Dystonia-Associated Cell Pathology (AID 1645839); details: HEK293 Flp-In EGFP-delE TorsinA, punctate imaging, 48 h; measured here: cell count cytotoxicity
# Summary of the method: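 High-content imaging quantified EGFP-TorsinA mislocalization in HEK293-derived cells inducibly expressing DYT1 mutant torsinA, after 48 h exposure to compound given together with tetracycline induction. Cell count served as a toxicity channel alongside %pathology.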
# [3] = qHTS Assay for Modulators of Human Peripheral Myelin Protein 22 (PMP22) Expression/Activity (AID 1967); details: Cell-based PMP22 reporter, dual-color luciferase ratio
# Summary of the method: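 Mouse MSC80 Schwann cells carrying Pmp22 promoter–green click beetle luciferase plus EF-alpha–red luciferase control, dosed 24 h at 37 °C. Dual-filter luminescence, overlap-corrected; %Activity from green/red ratio normalised to untreated cells, concentration-response curves fitted.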
# [4] = qHTS assay for small molecule antagonists of peroxisome proliferator-activated receptor gamma signaling (AID 588537); details: HEK293 PPARg-UAS-bla, beta-lactamase ratio, antagonist mode; measured here: W460 blue channel
# Summary of the method: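 Cell-based beta-lactamase assay; GW9662 served as the antagonist control. Stimulation used rosiglitazone, final 50 nM, 16 h, 37 C.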
# [5] = qHTS assay for small molecule antagonists of retinoid X receptor alpha signaling (AID 588546); details: HEK293T RXRa-UAS-bla, beta-lactamase ratio, antagonist mode; measured here: W530 green channel, cytotoxicity proxy;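 note: cells stimulated with 9-cis-retinoic acid as agonist; % is set by controls: 0 for no effect and ±100 for the full control effect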
# Summary of the method: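 Beta-lactamase reporter inhibition, read as CCF4 fluorescence ratio (ex 405, em 460/530 nm) after 2 h at RT. HEK293T UAS-bla cells, 2500/well, were stimulated with 9-cis-RA at 500 or 100 nM final alongside test compound for 18 h at 37 C.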
# [6] = qHTS assay for small molecule antagonists of peroxisome proliferator-activated receptor delta signaling (AID 588535); details: HEK293T PPARd-UAS-bla, beta-lactamase FRET ratio, 18 h; 460 nm channel;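 note: cells co-treated with a PPAR-delta agonist as stimulator during compound exposure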
# Summary of the method: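 Antagonist-mode qHTS using GeneBLAzer PPAR-delta-UAS-bla HEK293T cells; compound exposure 18 hrs at 37 C over a titration. Ratiometric CCF4 fluorescence at 460/530 nm; concentration-response points fitted to the Hill equation.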
# [7] = qHTS assay for small molecule antagonists of glucocorticoid receptor signaling (AID 588533); details: HeLa MMTV-bla, GRE beta-lactamase ratio, antagonist mode, 18 h; measured here: W530 channel AC50
# [8] = qHTS assay for small molecule antagonists of vitamin D receptor signaling (AID 588541); details: HEK293T VDR-UAS-bla, beta-lactamase ratio, antagonist mode; measured here: W460 blue channel (cell viability)
# [9] = S16 Schwann cell PMP22 intronic element beta-lactamase assay (AID 624044); details: S16 rat Schwann cells, PMP22 element beta-lactamase FRET, 24 h
# Summary of the method: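 Beta-lactamase reporter under a PMP22 intronic regulatory element in stable S16 rat Schwann cells; 24 h compound exposure. 460 nm blue signal normalized between DMSO (0%) and potassium clavulanate, with 535 nm FRET tracking viability; curves classed by r2 and response.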
# [10] = qHTS Validation Assay to Find Inhibitors of Chronic Active B-Cell Receptor Signaling (AID 485345); details: ABC-DLBCL cells, chronic BCR signaling reporter
# Summary of the method: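 Read-out: ratio of filter-corrected green (IkappaBalpha fusion) to red (native) luciferase signal in doxycycline-induced TMD8 cells after 4 h at 37C. Titration spanned 46 uM–3 nM; Data were normalised to basal cells and 10 uM MG-132 wells.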
# [11] = qHTS Assay for Inhibitors of PDE-IV (AID 607); details: HEK293 ACTOne CNG channel cells, membrane potential fluorescence; measured here: parental cell counter-screen
# Summary of the method: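 ACTOne HEK293 cells carry a modified cAMP-gated CNG channel and express endogenous PDE4; plated 1000 cells/well, compounds up to 22.9 uM final. Membrane-potential dye fluorescence (ex 535/em 590) was read; parental cells received 10 uM forskolin + 100 uM RO 20-1724.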
# [12] = measured here: red reporter channel AC50, EF-alpha promoter control reporter in MSC80 mouse Schwann cells
# [13] = measured here: 460 nm blue channel
structure (smiles),measurement,setting,value
Nc1cccc2c(N)cccc12,max response,[1],18.4%
same,AC50,[2],"0.891 µM [falling, full curve, poor fit]"
CC(CN1c2ccccc2Sc2ccccc21)N(C)C (stereo unspecified),AC50,"[3]; measured here: green reporter channel AC50, mouse Pmp22 promoter in mouse Schwann cells","95.3 µM [falling, single point]"
same,AC50,[3]; [12],"84.9 µM [falling, partial curve]"
same,AC50,[4],"44.7 µM [falling, partial curve, poor fit]"
same,max response,[5],-5.08%
same,AC50,[2],"17.8 µM [falling, partial curve, poor fit]"
OCc1c[nH]c2ccccc12,max response,[6],2.45%
same,AC50,[2],"20 µM [falling, partial curve, poor fit]"
Nc1ccc(N=Nc2ccccc2)c(N)n1,AC50,[7],"35.5 µM [falling, partial curve, poor fit]"
same,AC50,[8],"39.8 µM [falling, partial curve, poor fit]"
same,max response,[1],-41.9%
same,AC50,[2],"5.62 µM [falling, full curve, poor fit]"
CCCCOC(=O)c1ccc(O)cc1,max response,[6],34.2%
same,AC50,[4],"63.1 µM [falling, partial curve, poor fit]"
same,AC50,[2],"1.41 µM [falling, full curve]"
CCN(CC)CCCN(c1ccccc1)C1Cc2ccccc2C1,AC50,[9]; [13],"2.24 µM [falling, full curve, poor fit]"
same,AC50,[2],"12.6 µM [falling, partial curve]"
CN(C)CCC=C1c2ccccc2CCc2ccccc21,AC50,[10]; measured here: CBG/CBR ratio read-out,"16.4 µM [falling, single point]"
same,AC50,[10]; measured here: CBR control luciferase (viability counter),"16.4 µM [falling, partial curve]"
same,max response,[6],85.4%
same,AC50,[4],"39.8 µM [falling, partial curve, poor fit]"
same,max response,[1],-11.8%
same,AC50,[2],"35.5 µM [falling, partial curve, poor fit]"
CCCOC(=O)c1ccc(O)cc1,max response,[6],-22.4%
same,AC50,[4],"4.47 µM [falling, partial curve, poor fit] and 39.8 µM [falling, partial curve]"
same,AC50,[2],"12.6 µM [falling, partial curve, poor fit]"
CCCCc1cc2ccccc2c(OCCN(C)C)n1,AC50,[11],"5.01 µM [rising, partial curve]"
same,AC50,[2],"35.5 µM [falling, single point]"
CCc1cccc2c3c([nH]c12)C(CC)(CC(=O)O)OCC3 (stereo unspecified),AC50,[3]; [12],"84.9 µM [falling, single point]"
same,AC50,[2],"35.5 µM [rising, single point]"
CC(C)(c1ccc(O)cc1)c1ccc(O)cc1,max response,[6],-8.89% and -28.5%
same,max response,[5],23%
same,AC50,[2],"56.2 µM [falling, single point]"
C[N+](C)(C)CCCCCC[N+](C)(C)C,AC50,[3]; [12],"84.9 µM [falling, single point]"
same,AC50,[2],"1 µM [falling, partial curve, poor fit]"
CC(C)OC(=O)c1cc(C(=O)OC(C)C)cc([N+](=O)[O-])c1,max response,[1],6.76%
same,AC50,[2],"35.5 µM [rising, partial curve, poor fit]"
COc1cc([C@H]2Oc3cc([C@H]4Oc5cc(O)cc(O)c5C(=O)[C@@H]4O)ccc3O[C@@H]2CO)ccc1O,AC50,[4],"50.1 µM [rising, single point]"
same,AC50,[2],"6.31 µM [falling, partial curve, poor fit]"
Oc1c(Cl)cc(Cl)cc1Sc1cc(Cl)cc(Cl)c1O,AC50,[7],"6.31 µM [falling, full curve] and 2.24 µM [falling, full curve, poor fit]"
same,max response,[6],-27.9% and -27.6%
same,AC50,[4],"3.55 µM [falling, full curve] and 7.94 µM [falling, full curve]"
same,AC50,[8],"44.7 µM [falling, partial curve, poor fit]"
same,max response,[1],38.9% and 39%
same,max response,[5],34.5%
same,AC50,[9]; [13],"0.0355 µM [falling, full curve, poor fit]"
same,AC50,[9]; measured here: 530 nm viability channel,"0.02 µM [falling, full curve]"
same,AC50,[2],"22.4 µM [falling, single point]"
Oc1c(I)cc(Cl)c2cccnc12,max response,[6],-75.7%
same,AC50,[4],"35.5 µM [falling, partial curve, poor fit]"
same,max response,[1],46.8%
same,max response,[5],16.9%
same,AC50,[9]; [13],"17.8 µM [falling, partial curve, poor fit]"
same,AC50,[2],"2.51 µM [falling, partial curve, poor fit]"
Cc1cccc(Nc2ccccc2C(=O)O)c1C,AC50,[11],"3.98 µM [rising, partial curve]"
same,max response,[6],249%
same,max response,[1],65.2%
same,max response,[5],21.1%
same,AC50,[9]; [13],"0.00158 µM [falling, full curve, poor fit]"
same,AC50,[2],"14.1 µM [falling, single point]"

# Part of the list above, as tab-separated lines.
structure (smiles)	measurement	setting	value
Cc1cccc(Nc2ccccc2C(=O)O)c1C	max response	[5]	21.1%
same	AC50	[9]; [13]	0.00158 µM [falling, full curve, poor fit]
